Assay results as given in patent US10799439B2, “Coating of clay micro-tubes on surfaces of hair and natural fibers” (Louisiana Tech Research Corporation, priority 2017, dated 2020).
At least one structure is not confirmed: it was looked up by name or label, or the drawing left a doubt.

Assay: dye/drug loading of halloysite micro-tubes (TGA)
Assay type: physicochemical
Conditions: SDS-hydrophobized halloysite lumen
Protocol: One example method of loading the micro-tubes with a (substantially) water soluble hair dye agent uses the dye Indigo carmine. The Indigo carmine dye is dissolved in 1 mL of DI water at a ratio of 4% by weight (i.e., 40 mg of dye) under sonication. 40 mg of halloysite is added to the dispersion and sonicated until a homogeneous dispersion is obtained. The dispersion is place under a low vacuum (e.g., at approximately 1 psi or less) for three cycles, one hour for each cycle. The halloysite is then thoroughly washed with DI water five time by centrifuging at 10,600 rcf for three minutes. The washed halloysite was then dried in a hot air oven at 60° C. This procedure produced a 6 to 8 weight percent dye loading efficiency, i.e., weight of dye with respect to the weight of clay micro-tubes. However, different procedures may be used and generally it is desirable to generate micro-tubes loaded to about 5 to 10 weight percent dye loading efficiency, but in other embodiments, the loading efficiency could be between 2 to 35 weight percent (or any sub-range in between, with one specific example being 2% to 15%).
One example method of loading the micro-tubes with a (substantially) water insoluble hair dye agent uses the dye Lawsone. It is preferable to modify the halloysite lumen surface to allow more ready binding of nonpolar molecules. […]

## Nc1cc(N2CCCCC2)nc(N)[n+]1[O-] [monoxide, minoxidil]
  content in loaded nanotubes (TGA analysis): 7-9 wt. %
